# Screening data

The results are deposited in PubChem (AID1053133; Broad Institute, 2014).

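Vaccinia-infected cells with a two-color viral stage reporter; Venus fluorescence read on a plate reader; the cell line is not named here; timing not stated here.
The test concentration is not given here.
Percent change in Venus reporter signal; lower (more negative) values mean stronger inhibition of that viral stage.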

Values are in %.
How 0% and 100% were set is not given here.
Common to all entries: measured here: Venus reporter, other viral stage.
Part of the compounds only, not a random draw; the main read-out is not listed here.

O=C(c1ccc(F)cc1)N1CCCCN2[C@H](C1)[C@@H](c1ccc(-c3ccccc3)cc1)[C@@H]2CO gave activity change (Venus) -51.61%.
C[C@H](CO)N1C[C@H](C)[C@@H](CN(C)Cc2ccc(Oc3ccccc3)cc2)Oc2ccc(NC(=O)C3CC3)cc2CC1=O gave activity change (Venus) -28.95%.
COc1ccc(CN(C)C[C@H]2OCCCC[C@H](C)Oc3ccc(NC(=O)Nc4ccc(OC)cc4)cc3C(=O)N([C@H](C)CO)C[C@H]2C)cc1 gave activity change (Venus) -53.73%.
C[C@H]1CN([C@@H](C)CO)S(=O)(=O)c2ccc(-c3ccccc3)cc2O[C@@H]1CN(C)Cc1ccncc1 gave activity change (Venus) -57.45%.
O=C(Nc1ccc(F)cc1)N1CCCCN2[C@H](CO)[C@@H](c3ccc(C#CC4CC4)cc3)[C@H]2C1 gave activity change (Venus) -45.12%.
CC(C)CC#Cc1ccc2c(c1)O[C@H](CN(C)C(=O)c1ccccc1F)[C@H](C)CN([C@@H](C)CO)S2(=O)=O gave activity change (Venus) -38.02%.
CC(C)C#Cc1ccc([C@H]2[C@@H](CO)N3C(=O)CN(S(=O)(=O)c4ccccc4)C[C@H]23)cc1 gave activity change (Venus) -53.51%.
C[C@@H]1CN([C@@H](C)CO)C(=O)c2cc(NC(=O)Cc3cn(C)c4ccccc34)ccc2O[C@H]1CN(C)CC1CCCCC1 gave activity change (Venus) -33.54%.
C[C@@H]1CCCCO[C@H](CN(C)Cc2ccc3c(c2)OCO3)[C@H](C)CN([C@@H](C)CO)C(=O)c2cc(NC(=O)Nc3ccc(F)cc3)ccc2O1 gave activity change (Venus) -56.28%.
O=C(Nc1ccc(F)cc1)N1CC(=O)N2[C@H](CO)[C@H](c3ccc(C#Cc4ccc(F)cc4)cc3)[C@@H]2C1 gave activity change (Venus) -62.17%.
O=C(C[C@H]1CC[C@H]2[C@@H](COC[C@@H](O)CN2S(=O)(=O)c2ccccc2)O1)Nc1ccc(-c2ccccc2)cc1 gave activity change (Venus) -45.23%.
COc1cccc(-c2ccc3c(c2)O[C@H](CN(C)C(=O)c2ccccc2F)[C@H](C)CN([C@H](C)CO)S3(=O)=O)c1 gave activity change (Venus) -24.33%.
C[C@H](CO)N1C[C@H](C)[C@H](CN(C)S(=O)(=O)c2cccc(F)c2)Oc2ncc(-c3cccc(C(F)(F)F)c3)cc2C1=O gave activity change (Venus) -32.98%.
C[C@H](C(=O)N(C)C[C@@H]1OCc2ccccc2-c2c(n(C)c3ccccc23)C(=O)N([C@@H](C)CO)C[C@@H]1C)c1ccccc1 gave activity change (Venus) -31.76%.
COc1ccc(S(=O)(=O)Nc2ccc3c(c2)C(=O)N([C@H](C)CO)C[C@H](C)[C@H](CN(C)S(=O)(=O)c2ccc(F)cc2)OCCCC[C@H](C)O3)cc1 gave activity change (Venus) -29.79%.
O=C(Nc1ccccc1)N1CC(=O)N2[C@H](CO)[C@H](c3ccc(C#CC4CCCC4)cc3)[C@@H]2C1 gave activity change (Venus) -32.06%.
C[C@H]1CN([C@@H](C)CO)S(=O)(=O)c2ccc(C#Cc3ccccc3)cc2O[C@H]1CN(C)C(=O)CN(C)C gave activity change (Venus) -67.62%.
COc1ccc(S(=O)(=O)N2CCCCN3[C@H](CO)[C@H](c4ccc(C#CC(C)C)cc4)[C@H]3C2)cc1 gave activity change (Venus) -58.16%.
COc1ccc(S(=O)(=O)Nc2ccc3c(c2)C(=O)N([C@@H](C)CO)C[C@@H](C)[C@@H](CN(C)Cc2ccc(C(F)(F)F)cc2)OCCCC[C@@H](C)O3)cc1 gave activity change (Venus) -76.34%.
C[C@H](CO)N1C[C@H](C)[C@@H](CN(C)C(=O)Nc2ccc(C(F)(F)F)cc2)Oc2c(NC(=O)Nc3ccc(C(F)(F)F)cc3)cccc2C1=O gave activity change (Venus) -28.18%.
COc1ccc2c3c(n(C)c2c1)[C@H](CO)N(C(=O)Nc1ccc(F)cc1)CC31CCN(Cc2ccccc2F)CC1 gave activity change (Venus) -60.17%.
C[C@@H]1CN([C@@H](C)CO)C(=O)c2cccc(NC(=O)Nc3ccc(C(F)(F)F)cc3)c2O[C@H]1CN(C)C(=O)Nc1ccc(F)cc1 gave activity change (Venus) -50.67%.
O=C(Nc1cccc(F)c1)N1CCCCN2[C@H](C1)[C@H](c1ccc(-c3ccccc3F)cc1)[C@@H]2CO gave activity change (Venus) -37.05%.
OC[C@H]1[C@@H](c2ccc(/C=C/c3ccccc3)cc2)[C@H]2CN(Cc3cccnc3)CCCCN21 gave activity change (Venus) -59.84%.
C[C@H]1CN([C@@H](C)CO)C(=O)c2cccc(NC(=O)Nc3ccccc3)c2O[C@H]1CN(C)C(=O)NC1CCCCC1 gave activity change (Venus) -53.43%.
C[C@@H]1CN([C@@H](C)CO)S(=O)(=O)c2ccc(C3=CCCC3)cc2O[C@@H]1CN(C)C gave activity change (Venus) -30.31%.
OC[C@@H]1[C@@H](c2ccc(C#Cc3ccccc3)cc2)[C@H]2CN(CC3CCOCC3)CCCCN12 gave activity change (Venus) -46.39%.
COc1ccccc1-c1ccc([C@H]2[C@@H](CO)N3CCCCN(C(=O)NC4CCCC4)C[C@@H]23)cc1 gave activity change (Venus) -40.57%.

3 of the entries, repeated:

Result for COc1ccc(CN(C)C[C@H]2OCCCC[C@H](C)Oc3ccc(NC(=O)Nc4ccc(OC)cc4)cc3C(=O)N([C@H](C)CO)C[C@H]2C)cc1 was activity change (Venus) -53.73%.
Result for C[C@H](CO)N1C[C@H](C)[C@@H](CN(C)Cc2ccc(Oc3ccccc3)cc2)Oc2ccc(NC(=O)C3CC3)cc2CC1=O was activity change (Venus) -28.95%.
Result for COc1cccc(-c2ccc3c(c2)O[C@H](CN(C)C(=O)c2ccccc2F)[C@H](C)CN([C@H](C)CO)S3(=O)=O)c1 was activity change (Venus) -24.33%.